Measured values reported in article PMC7769281, “The plasticity of the pyruvate dehydrogenase complex confers a labile structure that is associated with its catalytic activity” (PLoS ONE, 2020).
Results are given in words; binding and its absence hold for the method and conditions named. In cells and extracts the contact can be indirect. Some binding calls cover weakened binding; strength is not graded here. Sequences can lack the tags named with a protein.

Biological target: T1, mammalian PDC E1p α subunit, PDHA1-HA-Halo (human) (UniProt P08559)
T1 sequence: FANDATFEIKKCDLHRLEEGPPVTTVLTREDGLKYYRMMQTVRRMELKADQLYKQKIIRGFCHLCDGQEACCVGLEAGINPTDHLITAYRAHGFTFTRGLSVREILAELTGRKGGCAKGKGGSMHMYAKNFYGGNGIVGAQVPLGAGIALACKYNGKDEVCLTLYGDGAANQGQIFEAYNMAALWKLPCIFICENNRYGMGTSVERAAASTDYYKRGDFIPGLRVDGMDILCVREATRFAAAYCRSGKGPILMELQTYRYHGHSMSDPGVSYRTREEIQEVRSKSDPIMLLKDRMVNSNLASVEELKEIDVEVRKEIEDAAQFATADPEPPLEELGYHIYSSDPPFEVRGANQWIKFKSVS
Test: co-IP; Halo purification via PDHA1-HA-Halo from HEK293T cells, then SEC on Superose 6 in 350 mM, 150 mM or 0 mM NaCl; fractions blotted for mPDC components

B1: mammalian PDC E1p β subunit (endogenous) (protein, UniProt P11177 31-359)
chain: LQVTVRDAINQGMDEELERDEKVFLLGEEVAQYDGAYKVSRGLWKKYGDKRIIDTPISEMGFAGIAVGAAMAGLRPICEFMTFNFSMQAIDQVINSAAKTYYMSGGLQPVPIVFRGPNGASAGVAAQHSQCFAAWYGHCPGLKVVSPWNSEDAKGLIKSAIRDNNPVVVLENELMYGVPFEFPPEAQSKDFLIPIGKAKIERQGTHITVVSHSRPVGHCLEAAAVLSKEGVECEVINMRTIRPMDMETIEASVMKTNHLVTVEGGWPQFGVGAEICARIMEGPAFNFLDAPAVRVTGADVPMPYAKILEDNSIPQVKDIIFAIKKTLNI
binding: binds

B2: mammalian PDC E2p (endogenous) (protein, UniProt P10515 87-647)
chain: SLPPHQKVPLPSLSPTMQAGTIARWEKKEGDKINEGDLIAEVETDKATVGFESLEECYMAKILVAEGTRDVPIGAIICITVGKPEDIEAFKNYTLDSSAAPTPQAAPAPTPAATASPPTPSAQAPGSSYPPHMQVLLPALSPTMTMGTVQRWEKKVGEKLSEGDLLAEIETDKATIGFEVQEEGYLAKILVPEGTRDVPLGTPLCIIVEKEADISAFADYRPTEVTDLKPQVPPPTPPPVAAVPPTPQPLAPTPSAPCPATPAGPKGRVFVSPLAKKLAVEKGIDLTQVKGTGPDGRITKKDIDSFVPSKVAPAPAAVVPPTGPGMAPVPTGVFTDIPISNIRRVIAQRLMQSKQTIPHYYLSIDVNMGEVLLVRKELNKILEGRSKISVNDFIIKASALACLKVPEANSSWMDTVIRQNHVVDVSVAVSTPAGLITPIVFNAHIKGVETIANDVVSLATKAREGKLQPHEFQGGTFTISNLGMFGIKNFSAIINPPQACILAIGASEDKLVPADNEKGFDVASMMSVTLSCDHRVVDGAVGAQWLAEFRKYLEKPITMLL
binding: binds
